Measured values: ChEMBL document CHEMBL4828767, “Identification of Clinical Candidate M2698, a Dual p70S6K and Akt Inhibitor, for Treatment of PAM Pathway-Altered Cancers” (J Med Chem, 2021)

Protein sequences, listed by entry. Tags and fused reporters are not part of them.
UniProt P23443, whole entry T412E: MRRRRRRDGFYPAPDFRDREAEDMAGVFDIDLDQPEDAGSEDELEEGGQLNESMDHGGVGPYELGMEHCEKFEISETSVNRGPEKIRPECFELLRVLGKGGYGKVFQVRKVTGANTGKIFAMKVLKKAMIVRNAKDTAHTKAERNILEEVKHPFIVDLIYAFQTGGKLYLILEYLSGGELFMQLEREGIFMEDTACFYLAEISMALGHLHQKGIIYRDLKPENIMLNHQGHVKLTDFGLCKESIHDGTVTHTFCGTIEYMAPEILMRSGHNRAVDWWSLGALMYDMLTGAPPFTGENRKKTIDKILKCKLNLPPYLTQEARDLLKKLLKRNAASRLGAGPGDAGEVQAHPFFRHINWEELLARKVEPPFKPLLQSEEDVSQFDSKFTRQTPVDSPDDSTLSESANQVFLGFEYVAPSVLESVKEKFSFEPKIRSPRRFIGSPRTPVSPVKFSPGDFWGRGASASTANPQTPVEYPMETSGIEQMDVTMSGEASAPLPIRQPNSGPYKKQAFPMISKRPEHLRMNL

Target: Ribosomal protein S6 kinase beta-1 (Homo sapiens, UniProt P23443, T412E)
Assay type: cell-based, Sf21

`NC(=O)c1cccc2c(NCc3ccc(F)cc3)ncnc12` showed an IC50 of 42 nM.
